Data: patent US20100222219A1 (priority 2006, published 2010)
Some results were stated once for a whole list of compounds, not compound by compound.

What was measured:
Assay type in all cases: in vivo
[1] = system: Boll weevil (Anthonomus grandis); assay: Activity against Boll weevil (Anthonomus grandis), eggs in microtiterplates; details: eggs treated with 2500 ppm, 3 to 5 days
Alternaria solani = assay: Preventive fungicidal control of early blight on tomatoes caused by Alternaria solani; details: tomato plants sprayed with 250 ppm active compound, inoculated next day, assessed after 5 days; untreated plants 90% infected
[2] = system: Tobacco budworm (Heliothis virescens); assay: Activity against Tobacco budworm (Heliothis virescens), eggs in microtiterplates; details: eggs treated with 2500 ppm, 6 days
Phytophthora infestans = details: tomato plants sprayed with 250 ppm active compound, inoculated next day, assessed after six days; untreated plants 90% infected
[3] = system: Mediterranean fruitfly (Ceratitis capitata); assay: Activity against Mediterranean fruitfly (Ceratitis capitata), eggs in microtiterplates; details: eggs treated with 2500 ppm, 6 days

SMILES | infection (% diseased leaf area) (Alternaria solani) | infection (% diseased leaf area) (Phytophthora infestans) | further results
O=S(=O)(NCc1ccnc2ccccc12)c1cc(-c2ccc(C(F)(F)F)cc2C(F)(F)F)cs1 [Ib.34] |  |  | mortality [1]: at least 75%
CCc1ccc(-c2csc(S(=O)(=O)NCc3ccncc3)c2)cc1 [Ib.1] | not more than 20% |  | 
O=S(=O)(NCc1ccnc2ccccc12)c1cc(-c2ccc(Cl)cc2Cl)cs1 [Ib.33] |  |  | mortality [2]: at least 75%; mortality [1]: at least 75%
Cc1cccc(-c2csc(S(=O)(=O)NCc3ccncc3)c2)c1 [Ib.23] | not more than 20% | not more than 20% | 
O=S(=O)(NCc1ccncc1)c1cc(-c2ccc(OC(F)(F)F)cc2)cs1 [Ib.6] | not more than 20% |  | mortality [3]: at least 75%
Cc1cc(F)ccc1-c1csc(S(=O)(=O)NCc2ccncc2)c1 [Ib.20] |  |  | mortality [2]: at least 75%
O=S(=O)(NCc1ccncc1)c1cc(-c2ccc3c(c2)OCO3)cs1 [Ib.13] | not more than 20% | not more than 20% | mortality [1]: at least 75%
O=S(=O)(NCc1ccncc1)c1cc(-c2ccc(C(F)(F)F)cc2)cs1 [Ib.4] | not more than 20% | not more than 20% | 
CON=C(C)c1ccc(-c2csc(S(=O)(=O)NCc3ccncc3)c2)cc1 [Ib.10] | not more than 20% | not more than 20% | 
O=S(=O)(NCc1ccncc1)c1cc(-c2ccccc2Cl)cs1 [Ib.14] | not more than 20% | not more than 20% | 
O=S(=O)(NCc1ccncc1)c1cc(-c2ccc(F)c(F)c2)cs1 [Ib.18] |  |  | mortality [1]: at least 75%
O=S(=O)(NCc1ccncc1)c1cc(-c2cccc(Cl)c2)cs1 [Ib.3] | not more than 20% |  | 
O=S(=O)(NCc1ccncc1)c1sccc1-c1cccc(Cl)c1 [Ia.6] |  |  | mortality [3]: at least 75%
N#Cc1cccc(-c2csc(S(=O)(=O)NCc3ccncc3)c2)c1 [Ib.17] | not more than 20% |  | 
CC(C)c1ccc(-c2csc(S(=O)(=O)NCc3ccncc3)c2)cc1 [Ib.5] | not more than 20% |  | 
Cc1ccc(-c2csc(S(=O)(=O)NCc3ccncc3)c2)cc1 [Ib.21] | not more than 20% | not more than 20% | 
CCON=C(C)c1ccc(-c2csc(S(=O)(=O)NCc3ccncc3)c2)cc1 [Ib.11] | not more than 20% |  | mortality [3]: at least 75%
COc1ccc(-c2csc(S(=O)(=O)NCc3ccncc3)c2)cc1Cl [Ib.12] |  | not more than 20% | 
O=S(=O)(NCc1ccncc1)c1cc(-c2ccc(Cl)cc2)cs1 [Ib.7] |  |  | mortality [2]: at least 75%; mortality [1]: at least 75%
O=S(=O)(NCc1ccncc1)c1cc(-c2cccc(C(F)(F)F)c2)cs1 [Ib.26] | not more than 20% |  | 
O=S(=O)(NCc1ccncc1)c1cc(-c2ccc(Cl)c(Cl)c2)cs1 [Ib.19] |  |  | mortality [2]: at least 75%; mortality [1]: at least 75%
